Out of some 52,000 sequences screened, about 210 (0.4%) were called active.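 Rule for the calls: active = gene whose silencing raises cell survival under the drug, median off-target-corrected z-score across its silencing RNAs 2 or more; inactive = the rest.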 The list shows a part of the results.

A short description of this experiment: Resistance to Poly (ADP-Ribose) Polymerase inhibitor: Gene Identification via Genome-wide siRNA Screen. Particulars: mouse BRCA2 R2336H ES cells, olaparib, CellTiter-Glo viability; stronger effect = higher value. A digest of the protocol:
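Mouse BRCA2 R2336H ES cells were reverse-transfected with siRNA (20 nM final), treated at 48 h with 500 nM olaparib, and read by CellTiter-Glo after 72 h. Scores: MAD-based z per siRNA, median per gene, seed off-target correction.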
Regarding GGAACUUUAGUUUGCGUAUTT against Emp2, the z-score is inactive: 0.236. The same measure for GGAUUCAGUCAAGAAUUUGTT against Dhx29: inactive: 1.59; for GCAUUUAAUCCUGCACUCCTT against Lrp10: inactive: 1.28; for GGUACCAUUAGUGGAGUCCTT against Hoxb9: inactive: -0.482.

Consider “GGCAAAGGAUCCAAGUUUGTT against 2310075C12Rik”, for which the z-score was inactive: 0.795. For “GGAUUCUGAGUGUACGUUUTT against 2810438M17Rik” the value was inactive: -1.61; for CCCUCUACAAUAAGAUGCATT against Rusc2, inactive: -0.879; for CCAUAUCCCUGGACUAGAGTT against Pglyrp4, inactive: 1.33. Take GGCCUCAAGCAGACUUUGATT against Myo9b: the z-score was inactive: -1.14. For GGCACGAUGAGCUCUCCUATT against Cstb the value was inactive: -2.52; for GCAUAAAUUUCAAGAGCGCTT against Perq1, inactive: -0.74; for GGAGAAGCCAGGAGUUUACTT against Prss18, inactive: 0.614. For CCAUAGAACAAGCUACACCTT against Cd160 the value was inactive: -0.631; for GGUGAAAGUUUACCUUCGATT against Kif20a, inactive: -1.18. On to CGUACCUAAGCAUACCAGCTT against Gpr20, for which the z-score is inactive: -0.118. GGGACAAGUUGGAUUCUUGTT against Paf53: the z-score is inactive: -1.79. For GGGUGACUGAACUUAGAAATT against Cd209c the value was inactive: -1.1; for GCAGAUCAGAGACAGAGUUTT against Olfr582, inactive: -2.56.

With GGUUUACAAGAGUUACAGUTT against Brpf1, the z-score is inactive: 1. The same measure for GGUGAUGGUUGGGUUUCUCTT against Olfr1449: inactive: 0.438; for GGAAUUCUCCUUCCUCACUTT against Cyp21a1: inactive: 0.0382; for GGAACUGGACAAGGACGAUTT against Arhgdia: inactive: 0.486.

Take GGAAUUAUCGCAUCUUUGATT against Sh3bp2: the z-score was inactive: 0.929. With GGAUGCAGUACGAAAUUCUTT against Psmd1, the z-score was inactive: -2.63. For GGACCUGACAGUUCAAAAATT against Dars the value was inactive: -1.16. As for GGCCCUCACCAUCUUUUGGTT against Olfr691, the z-score was inactive: 0.105. For GCUGGACCCACACAAAAAGTT against Rhbdl4 the value was inactive: 0.35; for “GCCAUGAUGCAUUAUGUAUTT against 6720416L17Rik”, inactive: -0.231.

On to GGCUUUCUGGAAGAUACUUTT against Hrh4, for which the z-score is inactive: -0.527. The same measure for GGUGCUUGAUUUUGUGCAGTT against Psmd13: inactive: -2.95. The same measure for GCCAAGGUGCAGAUAAGGUTT against Rhox7: inactive: 0.0271; for GGAACAUGUCUUCAAGAGATT against Stac2: inactive: -0.00531; for GGAAGGAGAGGAAAUUAAATT against Nrg3: inactive: 0.987. For GGCCCAAGUGACUAAGAACTT against Tgm1 the value was inactive: 1.84. For the sequence GGUGCUAAGAAAAUCAAAGTT against Ryr2, the z-score is inactive: -0.251. For GCUGGUGAAGAGCAUAUUCTT against Tcfcp2 the value was inactive: 0.54; for “GGGAAUCACAAGAGAAACATT against 1700052K11Rik”, inactive: -1.06. For GGAUAAACAGCUGAAGGUGTT against Ccs the value was inactive: 0.97; for GGAGAAGGAGCAGAUUAAATT against Krt2-8, inactive: 3.19.

Regarding GGUCCCAUCUUUGCUUUGATT against Tbl1x, the z-score is inactive: -1.66. The same measure for “GGCGCAGUACUAAAGACAGTT against 3110049J23Rik”: inactive: -2.32; for “GGGAAUUUUGAAAAGGCUGTT against 3632410F03Rik”: inactive: 0.39. Turning to UCAAGAAAGGUCAUGUCAGTT against Stdp1, the z-score was inactive: -0.804.

Turning to GGCCAAAGGACUGAUCAUCTT against AU042671, the z-score is inactive: -0.912.

Consider GGAGGAGUUGCUAUUAGACTT against Lin28b, for which the z-score was inactive: 0.226. For GCACUUCAAUGAGCGAGAATT against Mknk1 the value was inactive: 0.00962. The same measure for “AUACGAUGUUGUGGUCAGCTT against 1110001P11Rik”: inactive: 0.945; for GGGUCAAAAUGUGAGCUAUTT against BC003331: inactive: 0.675.

For the sequence GGAAGCAGGGCAGCUUAUUTT against Hbq1, the z-score is inactive: 0.0397. For “GGUCUGGUCAUCUCAGUUUTT against 8430420C20Rik” the value was inactive: -1.43; for GCCCUUAUGGACGAAAUUUTT against Ang2, inactive: 1.12. For “GGUGGUCACUAGCUAACCCTT against 4632433K11Rik” the value was inactive: 0.546; for GGAAAAGGUGUUCUGUUUUTT against Ankrd5, inactive: -0.0357. The same measure for GGAAAAAAGACCACCAAGATT against Mtif2: inactive: -0.589; for GUUCGAAAAGGGAAUGAUATT against LOC212285: inactive: 1.34; for “CCAGUAUCUAAUUGGAAUATT against 1700019B16Rik”: inactive: -0.294. Take GCCGAGCAGAUGUACAGAATT against Zfp39: the z-score is inactive: 1.8. The same measure for GGAUUCUCAGAAUGCUGGUTT against Polr3f: inactive: 0.367. In the case of “CCAGAGAGCCUUUUGUUUUTT against 9130413I22Rik”, the z-score was inactive: -0.954. For “CGGAAGAAGCCAGUUAAGATT against 2310016F22Rik” the value was inactive: 0.503. On to GCCCUGUCGUUUAUUGUGGTT against Cacng4, for which the z-score is inactive: 2.37. For CCCAAACAUAGCUGAAUAATT against Muc1 the value was inactive: -0.696; for GGUCAAUAUCCUCGGACAUTT against Hsd17b13, inactive: 0.672; for GCGAAUUUGCCUCUUACUATT against Rad9, inactive: -1.87. The same measure for GCGAGUCGUGAUUGACAACTT against Pnkp: inactive: -0.408.

As for “GGCAAUCAGGUUGACAGAUTT against C130079G13Rik”, the z-score is inactive: -0.383. With CCAGGUAUUCUUAAUAGACTT against Zfp207, the z-score is inactive: -2.09. In the case of GGUCACAGUUGGCAAAGAUTT against Myh11, the z-score was inactive: 1.11.

Turning to GGAAUGCAUGAUGAUGUCATT against Prlpf, the z-score was inactive: -3.09. The same measure for GCUAAAGUGACCUUAAAACTT against Phactr4: inactive: 1.19; for GGCCUAAGAUCAACUGACATT against Dtprp: inactive: -1.14; for GGCUAUGGAUGUCUCCAAUTT against Gstm4: inactive: -0.0857. For “AGACAGAUUCCAGUCCUGGTT against 4930451I11Rik” the value was inactive: 0.584; for GCCCAGAAUCAACUCCUACTT against Wwp2, inactive: -0.105.

For the sequence GCCUAUUAUAUUUAGACAGTT against Col4a6, the z-score was inactive: 0.84. On to GGGACCAAGCAGGUAAAAATT against Kif3a, for which the z-score is active: 4.17.

GGAAUUAAAGAGGAAACAATT against Zfp354b: the z-score was inactive: 0.0735. The same measure for “GCAUGGAUUGCUGUUUCUATT against 4930432H15Rik”: inactive: 0.662; for GGAGGAAUAUGACACAGUGTT against Wars2: inactive: -0.557; for GCUAGAGGAUGGCUGAGCUTT against Poll: inactive: -0.666. For GGAUCUAGAUGAGAAUGAATT against Fip1l1 the value was inactive: -2.79; for CCGUCAUGCUGAUUGCCUUTT against Gpr119, inactive: -2.32; for GGACAUUAUCCUCAGGGUGTT against Ccm2, inactive: -1.15.

Turning to GGAGAGUUAUUUGACCACCTT against Emd, the z-score is inactive: -0.156. For CCUAAAGUGAUUGCUGAUUTT against Olfr1202 the value was inactive: 1.03; for “GGGUUCAGACUGCUUCUUATT against 2900005J15Rik”, inactive: -0.048. For CCCGACUUCAGGAUGACAATT against AI256711 the value was inactive: -0.496; for GGAUGAAAAACUUUGAAACTT against Hao1, inactive: -0.0113; for “CGGAGUCACGCACAACUUCTT against 6330406P08Rik”, inactive: 1.04. Consider GCACCAUAUCUGAGAACUUTT against D13Wsu14e, for which the z-score was inactive: -1.05. As to CCCAACUAGUGUAGCUAUCTT against Usf1, the z-score is inactive: -1.72. For GCUCCUUAGAGAGAGUAUUTT against Sod3 the value was inactive: -1.58. “GGUUGGUAGGCUUUGGUGUTT against 5730593N15Rik”: the z-score was inactive: 1.22.

Regarding GGUCAAGUUUGACCUCAAGTT against Mybpc3, the z-score is inactive: -0.0605. The same measure for GGGACAACAAUGGUUUAGGTT against Tsga13: inactive: -0.167; for GCAGACAAAGAUCGCCAAATT against H2-Q5: inactive: 0.242. The same measure for GGUCCUGUUAAACUGAAAGTT against Fkbp1a: inactive: 0.0161; for CCGGACUCAGUUAUGGAAGTT against Gpr135: inactive: -0.78; for GCUACAUAAUUCCGAAGUUTT against Fmr1: inactive: 1.42. GGAGUACCUGUGGUGCAUUTT against Ahcy: the z-score was inactive: -0.164. The same measure for CCAACAAUAAACGAGGUCCTT against Mnt: inactive: -0.6; for GAAGUACAAGGUAGAGUACTT against Mgst3: inactive: -1.47; for GCCUGUAUACAUAAGUAAATT against Syngr4: inactive: -0.759. The same measure for “GGGUUGUCCGGGAGAAAGATT against C530024P05Rik”: inactive: -1.93.

The values are drawn from PubChem BioAssay AID1347423 (Functional Genomics Laboratory (NCATS/FGL), 2020).
